{
  "source": "patent US12730106B2",
  "about": "“Method for monitoring autoimmune disease” (THE REGENTS OF THE UNIVERSITY OF MICHIGAN, priority 2018, dated 2026)",
  "system": "EAE mice",
  "assay": "Pre-emptive treatment after early detection by IN in adoptive transfer EAE",
  "assay_type": "in vivo, SJL mice",
  "conditions": "treatment from day 7 post-transfer, before symptoms; compared to untreated control; 2.5 mg nanoparticles I.V. once or 5 mg/kg dexamethasone I.P. daily",
  "note": "Entries after “also recorded” stand apart in the source; their conditions may differ. At least one compound was matched to its structure with a doubt left.",
  "data": [
    {"smiles": "C[C@@H]1C[C@H]2[C@@H]3CCC4=CC(=O)C=C[C@]4(C)[C@@]3(F)[C@@H](O)C[C@]2(C)[C@@]1(O)C(=O)CO", "note": "[dexamethasone]", "values": [
      {"measurement": "Mean clinical scores (disease severity)", "result": "reduce clinical symptoms and prevent disease onset; also recorded: reduce disease severity"}
    ]}
  ]
}
